Results from paper PMC11671999.

The chains behind the UniProt entries cited, without tags or fusion partners.
UniProt Q9UM07: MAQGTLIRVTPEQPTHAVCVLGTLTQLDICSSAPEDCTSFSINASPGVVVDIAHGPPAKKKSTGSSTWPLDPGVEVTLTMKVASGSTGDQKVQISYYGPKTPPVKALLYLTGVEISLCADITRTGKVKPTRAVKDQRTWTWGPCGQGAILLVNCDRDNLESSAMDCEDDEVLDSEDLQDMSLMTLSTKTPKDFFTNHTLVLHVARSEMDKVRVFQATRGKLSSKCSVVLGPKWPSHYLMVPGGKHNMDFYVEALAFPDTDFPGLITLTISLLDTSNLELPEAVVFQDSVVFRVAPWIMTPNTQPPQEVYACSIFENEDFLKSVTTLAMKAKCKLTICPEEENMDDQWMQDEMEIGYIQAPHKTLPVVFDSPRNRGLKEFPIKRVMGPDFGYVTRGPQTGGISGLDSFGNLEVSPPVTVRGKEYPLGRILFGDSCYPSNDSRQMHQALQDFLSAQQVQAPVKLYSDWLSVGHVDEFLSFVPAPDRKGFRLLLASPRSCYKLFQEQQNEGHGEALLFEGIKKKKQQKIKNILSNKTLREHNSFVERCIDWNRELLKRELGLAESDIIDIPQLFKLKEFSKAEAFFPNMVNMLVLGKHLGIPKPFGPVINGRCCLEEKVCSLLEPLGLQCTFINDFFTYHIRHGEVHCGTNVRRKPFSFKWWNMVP
UniProt P04264: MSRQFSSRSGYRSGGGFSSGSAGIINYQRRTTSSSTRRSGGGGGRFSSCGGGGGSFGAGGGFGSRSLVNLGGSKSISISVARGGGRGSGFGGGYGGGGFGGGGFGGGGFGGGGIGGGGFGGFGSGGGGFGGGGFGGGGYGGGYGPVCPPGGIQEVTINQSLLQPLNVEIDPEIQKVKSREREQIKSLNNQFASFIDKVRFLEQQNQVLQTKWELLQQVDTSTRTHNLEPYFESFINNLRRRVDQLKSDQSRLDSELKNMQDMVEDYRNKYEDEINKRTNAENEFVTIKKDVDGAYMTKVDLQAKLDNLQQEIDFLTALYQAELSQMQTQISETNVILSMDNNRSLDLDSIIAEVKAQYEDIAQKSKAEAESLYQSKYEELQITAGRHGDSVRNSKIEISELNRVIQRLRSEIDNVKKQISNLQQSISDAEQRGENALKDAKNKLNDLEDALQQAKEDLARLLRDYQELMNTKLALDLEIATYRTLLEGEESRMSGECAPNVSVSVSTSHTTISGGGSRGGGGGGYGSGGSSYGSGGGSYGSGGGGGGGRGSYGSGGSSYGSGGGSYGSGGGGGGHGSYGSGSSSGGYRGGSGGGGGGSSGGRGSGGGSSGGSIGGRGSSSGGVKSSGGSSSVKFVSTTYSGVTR

Target: protein arginine deiminase type 4 (PAD4) (human (endogenous in GES-1)) (UniProt Q9UM07)
Experiment: affinity purification with mass spectrometry; pull-down with a PAD4-specific antibody from GES-1 cells with or without H. pylori infection for 6 hours; LC-MS/MS

- binding: binds
Substance: Keratin 1 (K1) (from UniProt P04264 1-644)

These are yes or no findings as the source states them, for the method shown. Binding seen in cells or lysates may run through a third protein. Here binding means that the protein was enriched with, or labelled near, the bait; the list need not be complete.
